Results on one substance are retold here after publication PMC12373910.

For this experiment, the target named is T1, GST-GalU (UniProt P0AEP3).
T1 sequence: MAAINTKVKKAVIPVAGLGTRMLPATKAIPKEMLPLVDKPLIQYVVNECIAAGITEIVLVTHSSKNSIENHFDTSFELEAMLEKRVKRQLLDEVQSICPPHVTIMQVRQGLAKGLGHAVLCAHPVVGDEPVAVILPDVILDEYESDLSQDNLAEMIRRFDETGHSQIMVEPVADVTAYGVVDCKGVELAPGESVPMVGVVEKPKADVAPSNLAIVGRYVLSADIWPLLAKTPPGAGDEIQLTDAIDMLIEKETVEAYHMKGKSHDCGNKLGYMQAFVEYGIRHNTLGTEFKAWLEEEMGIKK
Put plainly: co-IP; GST-GalU and Gnarl3-3xFLAG co-expressed in E. coli TOP10; whole cell lysate (50 mM Tris pH 7.4, 150 mM NaCl, 10 mM EDTA, 0.5% NP40, 5 mM DTT) incubated with magnetic glutathione agarose beads 1 h at room temperature; eluted with 50 mM reduced glutathione; Western blot with anti-GST and anti-FLAG.

No constants are given. Whether binding was seen depends on the method and setting. In cells and extracts the contact can be indirect. A result given as binding can be weak or reduced; the word gives no strength. Sequences can lack the tags named with a protein.

Take Gnarl3-3xFLAG: the binding entry is “binds”.
